PubChem BioAssay AID1259405 – NCATS – 2018
The deposit covers about 50,000 reagents; this is a random part of them. Over the whole deposit, about 4,000 (8%) got an active call. 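Mouse siRNA library applied to hamster cells; one well for each siRNA.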 The numbers tell different reagents against one gene apart. No sequences are given here.

Test: 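Knock-downs that lift recombinant protein yield in hamster ovary cells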 (primary screen)
Cell system: Chinese hamster CHO-K1 ovary cells with stable secreted eGFP expression
Reagents: single siRNA against mouse genes, 0.8 pmol siRNA per well (2 µl of 400 nM stock)
Time to read-out: 3 days
Measurement: 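Per-well intracellular GFP measured by laser scanning cytometry, plus viability from ATP luminescence, each relative to plate median of non-targeting control wells, in %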
Direction: GFP, % of control: higher = more GFP per well, higher productivity; viability (ATP), % of control: higher = more viable cells (more ATP)
Active means: 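Called active when intracellular GFP, relative to negative control, is at or above 120%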

no.	gene knocked down	reagent no.	GFP, % of control	viability (ATP), % of control	outcome
1	Stim1	1	140	82.9	active
2	Stim1	2	86.3	69.4	inactive
3	Stim1	3	54.1	67	inactive
4	Rbpjl	1	108	85.7	inactive
5	Rbpjl	2	96.6	96.7	inactive
6	Nme6	1	87.3	78.8	inactive
7	A630052C17Rik	1	79.7	80.6	inactive
8	A630052C17Rik	2	84.2	41.8	inactive
9	A630052C17Rik	3	56.5	87.2	inactive
10	Grxcr1	1	70.2	59.9	inactive
11	Grxcr1	2	93.9	86.8	inactive
12	Grxcr1	3	101	96.6	inactive
13	Tubg1	1	62.4	75	inactive
14	Tubg1	2	70.4	81.1	inactive
15	Cd40	1	105	115	inactive
16	Cd40	2	65	71.2	inactive
17	Cd40	3	73.6	46.4	inactive
18	Lxn	1	77.3	72.8	inactive
19	Lxn	2	106	96.4	inactive
20	Lxn	3	136	151	active
21	Gsdme	1	40.7	90.1	inactive
22	Gsdme	2	73.2	93.6	inactive
23	Gsdme	3	25.2	35.3	inactive
24	B4galt7	1	108	56.6	inactive
25	B4galt7	2	56.9	98.5	inactive
26	B4galt7	3	82.1	103	inactive
27	Lcmt1	1	39.9	38	inactive
28	Lcmt1	2	79.4	86.5	inactive
29	Lcmt1	3	51.5	58.8	inactive
30	Gpm6a	1	56.1	65.6	inactive
31	Gpm6a	2	58.7	89.2	inactive
32	Gpm6a	3	124	101	active
33	Ficd	1	71.1	62.9	inactive
34	Ficd	2	147	74.7	active
35	Ficd	3	110	98.3	inactive
36	F2	1	96.6	101	inactive
37	F2	2	72.3	73.9	inactive
38	F2	3	86.3	74.5	inactive
39	Dynlt4	1	45.5	66.4	inactive
40	Dynlt4	2	71.3	83.1	inactive
41	Dynlt4	3	85.3	79.8	inactive
42	Nipal4	1	97.1	106	inactive
43	Nipal4	2	64.8	66.7	inactive
44	Nipal4	3	93.2	79.4	inactive
45	Rapgef5	1	94	88.8	inactive
46	Rapgef5	2	72	61.2	inactive
47	Rapgef5	3	76	57.6	inactive
48	Rnasel	1	78.5	124	inactive
49	Rnasel	2	49.4	47	inactive
50	Or8g18	1	79.2	57.4	inactive
51	Or8g18	2	29.4	42.1	inactive
52	Or8g18	3	90.5	82.9	inactive
53	Ahdc1	1	89.9	95.9	inactive
54	Ahdc1	2	82.6	68.9	inactive
55	Ahdc1	3	74.2	90.8	inactive
56	Dnmt3b	1	95.6	103	inactive
57	Dnmt3b	2	102	78.6	inactive
58	Dnmt3b	3	39.6	58.6	inactive
59	Or7g32	1	66.9	45.7	inactive
60	Or7g32	2	103	58.8	inactive
61	Or7g32	3	102	100	inactive
62	Plxnb2	1	61.1	77.3	inactive
63	Slc23a3	1	50.9	44	inactive
64	Slc23a3	2	43.1	58.5	inactive
65	Slc23a3	3	90.6	77.4	inactive
66	Gjb2	1	56.2	74.9	inactive
67	Gjb2	2	80.3	91.2	inactive
68	Gjb2	3	91.4	116	inactive
69	Tsnaxip1	1	69.8	82	inactive
70	Tsnaxip1	2	88.3	78.1	inactive
71	Tsnaxip1	3	77.2	76.5	inactive
72	Apoa4	1	107	93.4	inactive
73	Apoa4	2	106	113	inactive
74	Apoa4	3	116	83.6	inactive
75	Mlxip	1	56.5	50.1	inactive
76	Mlxip	2	53.6	61.6	inactive
77	Mlxip	3	50	83.6	inactive
78	Zfp184	1	56.8	66.5	inactive
79	Zfp184	2	95.5	83.7	inactive
80	Zfp184	3	110	111	inactive
81	Traf3	1	116	97	inactive
82	Traf3	2	131	101	active
83	Traf3	3	141	103	active
84	Polr2d	1	60.3	45.5	inactive
85	Polr2d	2	97.3	89.5	inactive

Targets listed so far whose gene name begins with Z or z (3):
gene knocked down	reagent no.	GFP, % of control	viability (ATP), % of control	outcome
Zfp184	1	56.8	66.5	inactive
Zfp184	2	95.5	83.7	inactive
Zfp184	3	110	111	inactive
